Measured values published in PubChem BioAssay AID720576 (National Center for Advancing Translational Sciences (NCATS), 2013).
The shares of active, inactive and inconclusive entries below differ from those in the screen. Where the call is inconclusive, the potency comes from a doubtful curve fit. Calls of active or inactive are those of the source. Calls follow the shape of the dose curve; as a rule, active = well fitted inhibition curve with a large enough effect; inconclusive = small, poorly fitted or top-dose-only effect; inactive = no such curve, though single readings can be large or run the other way.
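Also: 44 h compound exposure; nearly all actives have a fitted effect of over 55% in size.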

Assay: qHTS Assay for Inhibitors of Hepatitis C Virus (HCV): Cytotoxicity Counterscreen for Cherry-picked Compounds
Conditions: HCV host cell line cytotoxicity counterscreen; series mostly up to 41.8 µM
Source text: Hepatitis C virus (HCV) infects about 200 million people in the world. Many infected people progress to chronic liver disease including cirrhosis with a risk of developing liver cancer. To date, there is no effective vaccine for hepatitis C. Current therapy based on interferon is only effective in about half of the patients and is associated with significant adverse effects. The fraction of people with HCV who can complete a successful treatment is estimated to be no more than 10 percent. Recent development of direct-acting antivirals against HCV, such as protease and polymerase inhibitors, is promising but still requires combination with peginterferon and ribavirin for maximal efficacy. In addition, these agents are associated with high rate of resistance and many have significant side effects. Due to the lack of a culture system for infectious HCV, the search for new HCV drugs has been greatly hampered. […] High-throughput screening (HTS) with an infectious HCV system would cover the complete spectrum of potentially druggable targets in all stages of HCV lifecycle, and would have more biological relevance than other cell-based assays. Moreover, targeting several key processes in the viral life cycle may not only increase antiviral efficacy; more importantly, it may also reduce the capacity of the virus to develop resistance to the compound.
The goal of this project is to identify novel HCV inhibitors as new therapies for hepatitis C, using a highly sensitive and specific assay platform based on a HCV infectious cell culture system established in the laboratory and adapted for high-throughput HCV drug screen. The primary assay was used to screen the MLPCN compound library and potential inhibitors were cherry picked for confirmation and further characterization. To evaluate the cytotoxic effect of the selected compounds, a secondary cell based counterscreen using the Promega CellTiter Glo reagent and Huh cell line was developed. The data herein is the result of the Cytotoxicity counterscreen against the cherry picked compounds. No significant activity is the desired outcome for this assay.
NIH Chemical Genomics Center [NCGC]
NIH Molecular Libraries Probe Centers Network [MLPCN]
Assay Submitter (PI): Jake Liang, NIDDK
Cells were plated in a 1536-wel tissue culture grade plates at a final concentration of 1,000 cells/well (3 uL volume). The assay plate was culture for 4 h. Then 23 nL of compounds from the library collection was added to each well and incubated for 44 h at 37C, 5% CO2. A volume of 4.5 uL CellTiterGlo reagent was to each well and the plates were incubated at room temperature for 15 min. The luminescence signal was read for 15 sec using the PerkinElmer ViewLux plate reader.
In the case of `S=C(S)N1CCCC1`, the Potency was active: 28 µM. In the case of `CC[N+]1(C)CCCC(OC(=O)C(O)(c2ccccc2)c2ccccc2)C1` (configuration not stated), the Potency was “inactive”. For `CNc1ccc2nc3ccccc3[n+](C)c2c1`, the Potency was active: 14.1 µM. With `CCOC(=O)C1(CCc2ccccc2)CCN(Cc2csc(C(C)=O)c2)CC1` the Potency was inconclusive: 25 µM [inhibitor, single point]. With `c1ccc(-c2nn(-c3ccccc3)[n+](-c3ccccc3)n2)cc1` the Potency was inconclusive: 11.2 µM [inhibitor, partial curve, poor fit]. For `COC(=O)C1=C(c2ccc(-c3ccccc3)c(F)c2)C[C@@H]2CC[C@H]1N2C(=O)N1CCOCC1`, the Potency was active: 7.05 µM. For `COC1C(O)C(C)OC(OC2CCC3(C)C(CCC4C3C(O)CC3(C)C(C5=CC(=O)OC5)CCC43O)C2)C1O` (configuration not stated), the Potency was inconclusive: 0.0995 µM [inhibitor, full curve]. For `Clc1ccc2c(c1)C(OC1CN3CCC1CC3)c1ccccc1CS2` (configuration not stated), the Potency was inconclusive: 31.5 µM [inhibitor, single point]. For `Cc1ccc(N=Nc2cc(C)ccc2N)cc1`, the Potency was inconclusive: 31.5 µM [inhibitor, partial curve, poor fit]. For `O=C(NC1(C(F)(F)F)Oc2ccccc2O1)N1CCC2(CC1)OCCO2`, the Potency was inconclusive: 15.8 µM [inhibitor, partial curve, poor fit]. With `CC1=CC(=Cc2sc3ccccc3[n+]2C)C=C(C)O1` the Potency was active: 7.05 µM. For `CCCCCn1c(=O)c(C(=O)NCc2ccco2)c(O)c2ccccc21`, the Potency was inconclusive: 14.1 µM [inhibitor, partial curve, poor fit].
